PubChem BioAssay AID652243 – Drosophila RNAi Screening Center, 2013
Screen: 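Fly genes required for human androgen receptor driven transcription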 (primary screen). Cell system: Drosophila S2R+ cells. Reagents: long dsRNA against Drosophila genes. Timing: 72 h (48 h, then 24 h hormone). Conditions: synthetic androgen R1881 at 10 nM for 24 h. Read-out: 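Firefly light from an androgen-responsive reporter and Renilla control light per well, raw and unnormalised, for each of two replicates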. Reading the numbers: firefly reporter light: higher = more light from androgen-responsive reporter; Renilla control light: higher = more constitutive control signal (cell number, transfection). Active means: 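Hit when the log firefly-to-Renilla ratio dropped or increased by a fixed fold versus the mean of GFP or LacZ controls across duplicate plates; lowering cut given as 1.5 and as 3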. Meaning of the calls: active = hit: reporter lowered or raised; inactive = no hit.
The screen tested about 24,000 reagents; shown is a random part of those that have a named target and a result. In the full data, 246 (1%) are marked active. 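Plates not normalised; calls are printed but the firefly/Renilla ratio behind them is not deposited; fold cut for lowering reported inconsistently.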 Raw values vary from plate to plate and are shown uncorrected. Unmarked entries are inactive. Not given: the amount of reagent.

| gene | amplicon | firefly reporter light, replicate 1 | firefly reporter light, replicate 2 | Renilla control light, replicate 1 | Renilla control light, replicate 2 |
| --- | --- | --- | --- | --- | --- |
| CLIP-190 (Cytoplasmic linker protein 190) | DRSC03283 | 5.19e5 | 5.95e5 | 1.45e6 | 1.66e6 |
| CLIP-190 (Cytoplasmic linker protein 190) | DRSC30075 | 8.02e5 | 7.04e5 | 7.96e5 | 7.28e5 |
| CG13033 | DRSC09913 | 2.19e5 | 1.37e5 | 2.17e6 | 1.59e6 |
| CG13033 | DRSC25379 | 9.18e5 | 9.17e5 | 9.27e5 | 1.15e6 |
| GstE4 (Glutathione S transferase E4) | DRSC06674 | 68555 | 54728 | 1.00e6 | 1.00e6 |
| GstE4 (Glutathione S transferase E4) | DRSC24213 | 6.00e5 | 2.86e5 | 4.50e5 | 4.40e5 |
| jv (javelin) | DRSC08831 | 1.12e5 | 96168 | 3.57e5 | 2.38e5 |
| jv (javelin) | DRSC25736 | 8.07e5 | 7.85e5 | 2.69e5 | 3.69e5 |
| CG7702 | DRSC16293 | 66401 | 84257 | 5.08e5 | 5.36e5 |
| CG7702 | DRSC27592 | 2.42e5 | 2.66e5 | 3.79e5 | 5.58e5 |
| mRpL2 (mitochondrial ribosomal protein L2) | DRSC10896 | 1.58e5 | 1.67e5 | 2.57e6 | 1.90e6 |
| AP-2mu (Adaptor Protein complex 2, mu subunit) | DRSC14090 | 96578 | 88212 | 5.73e5 | 6.97e5 |
| AP-2mu (Adaptor Protein complex 2, mu subunit) | DRSC28264 | 3.82e5 | 5.90e5 | 7.99e5 | 1.03e6 |
| Sulf1 (Sulfated) | DRSC16874 | 75944 | 86225 | 1.42e6 | 1.85e6 |
| Sulf1 (Sulfated) | DRSC27279 | 1.72e5 | 2.02e5 | 4.82e5 | 6.45e5 |
| CG31406 | DRSC12777 | 3.63e5 | 83877 | 1.73e5 | 1.27e5 |
| CG31406 | DRSC26169 | 3.13e5 | 3.24e5 | 4.76e5 | 4.53e5 |
| pyd3 | DRSC15459 | 3.20e5 | 2.89e5 | 3.27e6 | 3.14e6 |
| pyd3 | DRSC21640 | 7.90e5 | 7.09e5 | 2.21e6 | 1.75e6 |
| TwdlJ (TweedleJ) | DRSC15812 | 2.45e5 | 2.89e5 | 2.55e6 | 2.64e6 |
| NdufV3 (NADH:ubiquinone oxidoreductase subunit V3) | DRSC19423 | 4.59e5 | 3.89e5 | 3.51e6 | 3.02e6 |
| NdufV3 (NADH:ubiquinone oxidoreductase subunit V3) | DRSC27236 | 2.84e5 | 2.37e5 | 6.60e5 | 8.13e5 |
| Osi14 (Osiris 14) | DRSC12368 | 17665 | 22279 | 7.84e5 | 1.03e6 |
| Osi14 (Osiris 14) | DRSC26397 | 2.47e5 | 2.37e5 | 6.51e5 | 7.47e5 |
| CG31437 | DRSC13711 | 74725 | 95151 | 83387 | 1.51e5 |
| ND-19 (NADH dehydrogenase (ubiquinone) 19 kDa subunit) | DRSC04404 | 7.32e5 | 1.09e6 | 1.24e6 | 2.03e6 |
| ND-19 (NADH dehydrogenase (ubiquinone) 19 kDa subunit) | DRSC27604 | 2.08e5 | 1.97e5 | 5.11e5 | 5.85e5 |
| toc (toucan) | DRSC00169 | 1.36e5 | 1.53e5 | 1.65e5 | 1.55e5 |
| toc (toucan) | DRSC00171 | 1.03e5 | 98254 | 4.92e5 | 4.57e5 |
| toc (toucan) | DRSC00842 | 6.53e5 | 8.31e5 | 1.59e6 | 1.50e6 |
| Mur89F (Mucin related 89F) | DRSC15544 | 72917 | 96897 | 1.57e6 | 2.26e6 |
| Mur89F (Mucin related 89F) | DRSC25291 | 6.66e5 | 1.00e6 | 1.24e6 | 1.33e6 |
| Hsc70-5 (Heat shock protein 70 cognate 5) | DRSC07442 | 6.99e5 | 4.34e5 | 1.70e6 | 1.68e6 |
| Hsc70-5 (Heat shock protein 70 cognate 5) | DRSC24015 | 2.89e5 | 2.20e5 | 5.53e5 | 4.81e5 |
| Herc4 (HECT and RLD domain containing E3 ubiquitin ligase 4) | DRSC08631 | 61363 | 56342 | 6.13e5 | 6.35e5 |
| CG6574 | DRSC16070 | 1.51e5 | 1.45e5 | 1.80e6 | 2.11e6 |
| DIP1 (DISCO Interacting Protein 1) | DRSC20818 | 4.87e5 | 6.17e5 | 1.27e6 | 1.39e6 |
| DIP1 (DISCO Interacting Protein 1) | DRSC27354 | 2.32e5 | 2.00e5 | 6.27e5 | 5.87e5 |

The list goes on (8 carried over from the part before).
| gene | amplicon | firefly reporter light, replicate 1 | firefly reporter light, replicate 2 | Renilla control light, replicate 1 | Renilla control light, replicate 2 |
| --- | --- | --- | --- | --- | --- |
| Mur89F (Mucin related 89F) | DRSC15544 | 72917 | 96897 | 1.57e6 | 2.26e6 |
| Mur89F (Mucin related 89F) | DRSC25291 | 6.66e5 | 1.00e6 | 1.24e6 | 1.33e6 |
| Hsc70-5 (Heat shock protein 70 cognate 5) | DRSC07442 | 6.99e5 | 4.34e5 | 1.70e6 | 1.68e6 |
| Hsc70-5 (Heat shock protein 70 cognate 5) | DRSC24015 | 2.89e5 | 2.20e5 | 5.53e5 | 4.81e5 |
| Herc4 (HECT and RLD domain containing E3 ubiquitin ligase 4) | DRSC08631 | 61363 | 56342 | 6.13e5 | 6.35e5 |
| CG6574 | DRSC16070 | 1.51e5 | 1.45e5 | 1.80e6 | 2.11e6 |
| DIP1 (DISCO Interacting Protein 1) | DRSC20818 | 4.87e5 | 6.17e5 | 1.27e6 | 1.39e6 |
| DIP1 (DISCO Interacting Protein 1) | DRSC27354 | 2.32e5 | 2.00e5 | 6.27e5 | 5.87e5 |
| CG31041 | DRSC13951 | 9.27e5 | 6.13e5 | 1.37e6 | 6.09e5 |
| Cp7Fc (Chorion protein c at 7F) | DRSC18035 | 6.15e5 | 4.01e5 | 3.41e6 | 3.09e6 |
| Cp7Fc (Chorion protein c at 7F) | DRSC27432 | 2.33e5 | 3.09e5 | 6.26e5 | 6.27e5 |
| Vha100-5 (Vacuolar H[+] ATPase 100kD subunit 5) | DRSC02175 | 1.43e5 | 1.90e5 | 1.16e6 | 1.53e6 |
| Vha100-5 (Vacuolar H[+] ATPase 100kD subunit 5) | DRSC26439 | 5.37e5 | 4.27e5 | 4.87e5 | 3.20e5 |
| fru (fruitless) | DRSC16953 | 6.84e5 | 8.28e5 | 2.27e6 | 2.33e6 |
| fru (fruitless) | DRSC24960 | 7.28e5 | 4.79e5 | 5.09e5 | 4.48e5 |
| CG33764 | DRSC37812 | 8.39e5 | 8.98e5 | 2.27e6 | 2.36e6 |
| CG4650 | DRSC02767 | 1.37e5 | 1.40e5 | 2.09e6 | 1.96e6 |
| Tdc2 (Tyrosine decarboxylase 2) | DRSC04999 | 3.36e5 | 2.28e5 | 1.80e6 | 1.37e6 |
| Tdc2 (Tyrosine decarboxylase 2) | DRSC28952 | 8.78e5 | 7.68e5 | 1.57e6 | 1.48e6 |
| CG13893 | DRSC08363 | 45150 | 68094 | 7.47e5 | 6.83e5 |
| CG32148 | DRSC09338 | 2.34e5 | 3.30e5 | 8.92e5 | 8.34e5 |
| CG32148 | DRSC28787 | 4.44e5 | 3.71e5 | 9.02e5 | 9.75e5 |
| CG31269 | DRSC15744 | 70364 | 91568 | 9.13e5 | 1.48e6 |
| CG31269 | DRSC28845 | 6.13e5 | 4.02e5 | 1.01e6 | 1.11e6 |
| CG10801 | DRSC17761 | 1.55e5 | 1.97e5 | 2.22e6 | 2.56e6 |
| Ehbp1 (Eps15 homology domain containing protein-binding protein 1) | DRSC06561 | 1.11e6 | 1.18e6 | 1.79e6 | 1.48e6 |
| Ehbp1 (Eps15 homology domain containing protein-binding protein 1) | DRSC30006 | 5.45e5 | 4.84e5 | 6.73e5 | 8.25e5 |
| CG13955 | DRSC06443 | 2.85e5 | 2.97e5 | 1.91e6 | 1.82e6 |
